In paper PMC8389850, “The PilB-PilZ-FimX regulatory complex of the Type IV pilus from Xanthomonas citri” (PLoS Pathogens, 2021) one finds binding data, which are given here for two substances.

The target in assay [1] is PilB_(1-190), His tag removed (Xanthomonas citri pv. citri strain 306). Nature of the assay: SEC-MALS; both purified. A general note: In gel filtration, larger molecules generally elute earlier.
Assay [2] addresses PilB_(12-163) (Xanthomonas citri pv. citri strain 306). Kind of assay: SEC-MALS; both purified.

No constants are given. Whether binding was seen depends on the method and setting.

With “PilB_(1-190), His tag removed (from UniProt A0AAI7ZH88 1-190) (domain or fragment)”, the binding result in assay [1] was “no binding (tested: 3.0 mg/ml to 4.0 mg/ml)”.

“PilB_(12-163) (from UniProt A0AAI7ZH88 12-163) (domain or fragment)”: the binding result in assay [2] was “no binding (tested: 3.0 mg/ml to 4.0 mg/ml)”.
